These are yes or no findings as the source states them, for the method shown. Binding seen in cells or lysates may run through a third protein. Some entries that bind do so weakly or less than the wild type. For some assays here: Tags and fused reporters may be left off the sequences shown.
Legend:
Myc-Mer (Drosophila) [1] = biological target: T1, Myc-Mer (Drosophila) (UniProt Q24564); assay: co-IP; HEK-293T cells co-transfected with two tagged partners, with or without co-expressed HA-Ter94 (Fig. 7a-c) or HA-Ub-K63 (Fig. 7d-e); IP and immunoblot
T1 sequence: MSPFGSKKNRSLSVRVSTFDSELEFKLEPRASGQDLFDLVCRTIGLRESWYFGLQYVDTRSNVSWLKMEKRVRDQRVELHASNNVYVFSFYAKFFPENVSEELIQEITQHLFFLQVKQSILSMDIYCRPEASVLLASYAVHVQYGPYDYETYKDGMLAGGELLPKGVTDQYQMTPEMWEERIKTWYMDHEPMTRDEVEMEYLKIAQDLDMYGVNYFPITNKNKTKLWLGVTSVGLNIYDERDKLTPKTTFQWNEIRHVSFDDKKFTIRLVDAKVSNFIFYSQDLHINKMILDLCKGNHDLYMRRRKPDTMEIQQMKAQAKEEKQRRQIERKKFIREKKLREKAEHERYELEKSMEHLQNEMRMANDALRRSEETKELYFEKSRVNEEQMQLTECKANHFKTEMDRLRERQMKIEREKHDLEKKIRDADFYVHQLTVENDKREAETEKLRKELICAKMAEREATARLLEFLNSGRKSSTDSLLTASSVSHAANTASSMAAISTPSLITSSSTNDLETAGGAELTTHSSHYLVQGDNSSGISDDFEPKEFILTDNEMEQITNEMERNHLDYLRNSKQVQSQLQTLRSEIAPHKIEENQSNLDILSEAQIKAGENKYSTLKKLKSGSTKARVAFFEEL

The chains behind the UniProt entries cited, without tags or fusion partners.
UniProt P35240: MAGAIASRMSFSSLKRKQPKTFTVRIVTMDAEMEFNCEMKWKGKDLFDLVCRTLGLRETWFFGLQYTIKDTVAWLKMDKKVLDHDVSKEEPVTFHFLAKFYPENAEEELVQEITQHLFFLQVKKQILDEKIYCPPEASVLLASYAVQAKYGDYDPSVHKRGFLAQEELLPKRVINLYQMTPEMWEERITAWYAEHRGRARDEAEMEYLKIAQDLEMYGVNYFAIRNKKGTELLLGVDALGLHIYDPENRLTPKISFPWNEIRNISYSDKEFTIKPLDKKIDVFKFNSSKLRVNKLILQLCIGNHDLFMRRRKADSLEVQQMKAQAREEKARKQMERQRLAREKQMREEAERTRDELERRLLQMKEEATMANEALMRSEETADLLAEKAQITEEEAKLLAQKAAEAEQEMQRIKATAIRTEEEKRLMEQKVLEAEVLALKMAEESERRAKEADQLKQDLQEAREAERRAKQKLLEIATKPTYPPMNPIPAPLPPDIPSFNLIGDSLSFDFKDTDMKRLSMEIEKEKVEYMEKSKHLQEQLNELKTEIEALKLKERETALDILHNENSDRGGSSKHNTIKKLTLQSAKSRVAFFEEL
UniProt Q7KN62: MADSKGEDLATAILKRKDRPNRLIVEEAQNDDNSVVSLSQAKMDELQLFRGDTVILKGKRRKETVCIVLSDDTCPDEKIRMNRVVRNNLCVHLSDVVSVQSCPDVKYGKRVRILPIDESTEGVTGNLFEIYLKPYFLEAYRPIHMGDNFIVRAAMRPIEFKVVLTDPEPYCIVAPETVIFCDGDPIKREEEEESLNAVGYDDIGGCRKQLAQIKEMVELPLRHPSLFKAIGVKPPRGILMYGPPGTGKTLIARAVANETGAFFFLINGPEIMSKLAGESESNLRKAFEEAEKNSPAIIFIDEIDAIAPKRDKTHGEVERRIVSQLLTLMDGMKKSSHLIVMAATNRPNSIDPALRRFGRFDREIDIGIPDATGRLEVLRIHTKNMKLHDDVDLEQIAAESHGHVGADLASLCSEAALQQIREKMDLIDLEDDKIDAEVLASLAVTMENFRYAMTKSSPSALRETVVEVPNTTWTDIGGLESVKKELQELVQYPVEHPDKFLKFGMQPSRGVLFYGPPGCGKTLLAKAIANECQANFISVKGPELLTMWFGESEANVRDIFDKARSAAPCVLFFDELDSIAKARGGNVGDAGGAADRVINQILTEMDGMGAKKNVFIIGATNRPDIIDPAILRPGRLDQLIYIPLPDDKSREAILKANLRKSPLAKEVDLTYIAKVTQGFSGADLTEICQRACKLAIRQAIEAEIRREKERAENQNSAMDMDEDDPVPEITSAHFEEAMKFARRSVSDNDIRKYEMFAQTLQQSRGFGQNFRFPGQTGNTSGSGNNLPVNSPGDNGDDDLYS

Fg-Mer (Drosophila) = biological target: T2, Fg-Mer (Drosophila) (UniProt Q24564); assay: as above
T2 sequence: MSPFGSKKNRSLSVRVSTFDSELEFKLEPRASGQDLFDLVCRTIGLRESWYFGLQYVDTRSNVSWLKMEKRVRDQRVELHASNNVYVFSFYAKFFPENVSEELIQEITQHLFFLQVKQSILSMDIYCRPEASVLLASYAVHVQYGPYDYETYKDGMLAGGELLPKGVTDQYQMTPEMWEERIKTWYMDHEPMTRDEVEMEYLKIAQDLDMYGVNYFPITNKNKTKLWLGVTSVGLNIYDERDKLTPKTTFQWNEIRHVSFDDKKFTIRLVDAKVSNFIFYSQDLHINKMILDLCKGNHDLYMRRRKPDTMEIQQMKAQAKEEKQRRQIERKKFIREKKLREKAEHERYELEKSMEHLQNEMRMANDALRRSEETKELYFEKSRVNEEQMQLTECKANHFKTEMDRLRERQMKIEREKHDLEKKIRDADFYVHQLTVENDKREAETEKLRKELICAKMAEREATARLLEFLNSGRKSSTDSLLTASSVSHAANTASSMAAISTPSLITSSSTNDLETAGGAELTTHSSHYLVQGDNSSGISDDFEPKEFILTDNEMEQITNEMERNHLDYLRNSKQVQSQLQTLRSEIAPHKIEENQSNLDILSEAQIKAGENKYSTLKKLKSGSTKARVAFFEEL

Myc-Mer (Drosophila) [2] = biological target: T1, Myc-Mer (Drosophila); assay: co-IP; HEK-293T cells co-transfected with two tagged constructs (PEI), collected 48 h after transfection; IP with anti-Fg or anti-Myc, immunoblot
Myc-NF2 (human) = Myc-NF2 (human) (UniProt P35240); assay: as above
[3] = biological target: T3, The FERM domain in Mer (Drosophila) (UniProt Q24564); assay: as above
T3 sequence: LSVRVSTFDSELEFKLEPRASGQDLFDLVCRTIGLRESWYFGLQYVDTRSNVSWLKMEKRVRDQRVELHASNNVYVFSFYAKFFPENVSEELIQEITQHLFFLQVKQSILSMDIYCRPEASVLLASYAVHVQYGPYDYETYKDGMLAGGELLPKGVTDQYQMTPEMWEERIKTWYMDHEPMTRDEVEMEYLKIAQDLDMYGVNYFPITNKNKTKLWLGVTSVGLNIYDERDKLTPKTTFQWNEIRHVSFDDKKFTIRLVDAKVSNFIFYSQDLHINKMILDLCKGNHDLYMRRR

[4] = biological target: T4, Myc-Mer-N (aa1-375) (Drosophila) (UniProt Q24564); assay: as above
T4 sequence: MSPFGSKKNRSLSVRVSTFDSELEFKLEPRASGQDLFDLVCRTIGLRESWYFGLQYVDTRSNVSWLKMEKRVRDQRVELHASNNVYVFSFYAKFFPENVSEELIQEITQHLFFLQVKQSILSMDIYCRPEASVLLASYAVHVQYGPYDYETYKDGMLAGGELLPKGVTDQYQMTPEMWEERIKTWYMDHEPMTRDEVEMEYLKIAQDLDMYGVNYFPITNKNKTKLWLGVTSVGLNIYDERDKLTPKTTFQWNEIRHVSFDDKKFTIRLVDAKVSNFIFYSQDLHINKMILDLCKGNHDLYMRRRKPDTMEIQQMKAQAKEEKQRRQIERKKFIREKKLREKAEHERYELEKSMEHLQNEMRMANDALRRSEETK

Myc-Ex (Drosophila) = biological target: T5, Myc-Ex (Drosophila) (UniProt Q07436); assay: co-IP; HEK-293T cells co-transfected with two tagged partners, with or without co-expressed HA-Ter94 (Fig. 7a-c) or HA-Ub-K63 (Fig. 7d-e); IP and immunoblot
T5 sequence: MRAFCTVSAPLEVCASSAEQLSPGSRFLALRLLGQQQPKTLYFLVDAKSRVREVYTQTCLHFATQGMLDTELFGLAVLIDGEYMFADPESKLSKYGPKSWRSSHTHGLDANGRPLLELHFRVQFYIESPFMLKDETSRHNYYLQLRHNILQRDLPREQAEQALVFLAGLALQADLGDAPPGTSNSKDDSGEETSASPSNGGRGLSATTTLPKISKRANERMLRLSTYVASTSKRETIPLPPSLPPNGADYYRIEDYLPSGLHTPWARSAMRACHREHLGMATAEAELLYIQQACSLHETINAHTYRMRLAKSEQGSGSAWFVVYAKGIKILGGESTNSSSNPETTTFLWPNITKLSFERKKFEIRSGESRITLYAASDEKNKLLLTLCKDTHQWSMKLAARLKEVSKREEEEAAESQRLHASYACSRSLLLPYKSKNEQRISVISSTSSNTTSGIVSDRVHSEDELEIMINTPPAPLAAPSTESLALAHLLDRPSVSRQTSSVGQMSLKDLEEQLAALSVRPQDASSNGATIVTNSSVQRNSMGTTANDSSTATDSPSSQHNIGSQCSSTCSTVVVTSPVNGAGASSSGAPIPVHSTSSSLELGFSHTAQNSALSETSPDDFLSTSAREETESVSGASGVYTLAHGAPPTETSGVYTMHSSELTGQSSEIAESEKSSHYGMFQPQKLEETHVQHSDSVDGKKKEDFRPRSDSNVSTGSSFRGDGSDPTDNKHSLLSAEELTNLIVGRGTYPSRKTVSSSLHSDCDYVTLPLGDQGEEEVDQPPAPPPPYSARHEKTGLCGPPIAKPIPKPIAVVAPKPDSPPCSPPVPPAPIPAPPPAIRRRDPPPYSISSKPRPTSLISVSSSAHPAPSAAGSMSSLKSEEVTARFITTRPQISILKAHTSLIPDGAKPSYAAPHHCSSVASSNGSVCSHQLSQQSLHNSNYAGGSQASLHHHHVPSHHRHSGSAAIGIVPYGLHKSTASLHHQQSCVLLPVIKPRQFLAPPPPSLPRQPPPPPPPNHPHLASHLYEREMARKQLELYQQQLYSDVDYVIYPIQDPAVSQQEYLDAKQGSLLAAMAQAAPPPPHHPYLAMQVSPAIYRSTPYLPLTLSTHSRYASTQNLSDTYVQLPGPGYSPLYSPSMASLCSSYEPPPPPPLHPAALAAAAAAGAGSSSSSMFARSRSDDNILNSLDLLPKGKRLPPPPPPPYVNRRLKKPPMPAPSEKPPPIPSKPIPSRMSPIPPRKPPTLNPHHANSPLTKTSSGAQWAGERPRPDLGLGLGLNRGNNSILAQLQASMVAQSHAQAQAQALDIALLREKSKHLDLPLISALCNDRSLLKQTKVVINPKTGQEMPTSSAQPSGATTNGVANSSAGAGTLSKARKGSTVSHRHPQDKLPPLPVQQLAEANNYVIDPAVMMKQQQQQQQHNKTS

## HA-Ter94 (from UniProt Q7KN62 1-801)
Myc-Mer (Drosophila) [1]
  binding: binds
Fg-Mer (Drosophila)
  binding: binds

## Fg-hVCP (from UniProt P55072 1-806)
Myc-Mer (Drosophila) [2]
  binding: binds
Myc-NF2 (human)
  binding: binds

## Fg-Ter94 (from UniProt Q7KN62 1-801)
Myc-Mer (Drosophila) [2]
  binding: binds
[3]
  binding: binds
[4]
  binding: binds

B1: Fg-Mer (protein, UniProt Q24564 1-635)
chain: MSPFGSKKNRSLSVRVSTFDSELEFKLEPRASGQDLFDLVCRTIGLRESWYFGLQYVDTRSNVSWLKMEKRVRDQRVELHASNNVYVFSFYAKFFPENVSEELIQEITQHLFFLQVKQSILSMDIYCRPEASVLLASYAVHVQYGPYDYETYKDGMLAGGELLPKGVTDQYQMTPEMWEERIKTWYMDHEPMTRDEVEMEYLKIAQDLDMYGVNYFPITNKNKTKLWLGVTSVGLNIYDERDKLTPKTTFQWNEIRHVSFDDKKFTIRLVDAKVSNFIFYSQDLHINKMILDLCKGNHDLYMRRRKPDTMEIQQMKAQAKEEKQRRQIERKKFIREKKLREKAEHERYELEKSMEHLQNEMRMANDALRRSEETKELYFEKSRVNEEQMQLTECKANHFKTEMDRLRERQMKIEREKHDLEKKIRDADFYVHQLTVENDKREAETEKLRKELICAKMAEREATARLLEFLNSGRKSSTDSLLTASSVSHAANTASSMAAISTPSLITSSSTNDLETAGGAELTTHSSHYLVQGDNSSGISDDFEPKEFILTDNEMEQITNEMERNHLDYLRNSKQVQSQLQTLRSEIAPHKIEENQSNLDILSEAQIKAGENKYSTLKKLKSGSTKARVAFFEEL
Myc-Ex (Drosophila)
  binding: binds
